From patent US20240294587A1, “K-RAS INHIBITOR” (THE JOHNS HOPKINS UNIVERSITY, priority 2021, published 2024)
No constants are given. Whether binding was seen depends on the method and setting. Some binding calls cover weakened binding; strength is not graded here.

Sequences of proteins named here, by UniProt entry; tags and fusion partners are left off. Residues count along the entry.
UniProt Q9BPZ7, residues 2-522: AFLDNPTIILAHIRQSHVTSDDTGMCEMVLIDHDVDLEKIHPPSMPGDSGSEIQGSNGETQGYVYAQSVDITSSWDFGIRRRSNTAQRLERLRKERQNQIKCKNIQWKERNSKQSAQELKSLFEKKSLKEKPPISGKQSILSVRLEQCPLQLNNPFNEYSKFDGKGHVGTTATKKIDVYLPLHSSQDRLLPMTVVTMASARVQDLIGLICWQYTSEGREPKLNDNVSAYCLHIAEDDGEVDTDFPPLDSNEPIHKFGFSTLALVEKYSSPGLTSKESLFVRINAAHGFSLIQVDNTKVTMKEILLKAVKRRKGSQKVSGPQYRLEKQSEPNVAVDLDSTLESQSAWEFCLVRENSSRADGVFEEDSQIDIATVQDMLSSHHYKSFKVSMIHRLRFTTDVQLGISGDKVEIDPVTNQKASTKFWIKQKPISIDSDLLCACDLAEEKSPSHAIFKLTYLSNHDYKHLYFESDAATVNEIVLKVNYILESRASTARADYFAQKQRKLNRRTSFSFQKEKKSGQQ
UniProt P61586, residues 1-190: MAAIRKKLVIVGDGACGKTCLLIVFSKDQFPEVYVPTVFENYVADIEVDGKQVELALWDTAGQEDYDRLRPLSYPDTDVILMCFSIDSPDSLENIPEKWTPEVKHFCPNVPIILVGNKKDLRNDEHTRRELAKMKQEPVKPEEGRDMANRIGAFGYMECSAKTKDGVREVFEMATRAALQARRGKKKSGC

Target: SIN1 (endogenous, HEK293 cells) (human) (UniProt Q9BPZ7)
Test: immunoprecipitation of endogenous RhoA with anti-RhoA antibodies from HEK293 cells, Western blot (FIG. 1D; unaffected in K-Ras-KO cells, FIG. 1E)

RhoA (endogenous, HEK293 cells) (from UniProt P61586 1-190)
binding: binds
